# Laboratory results as given in PubChem BioAssay AID1347076 (National Center for Advancing Translational Sciences (NCATS), 2019).
# Among all 400,000 compounds or so, about 13,000 (3.2%) were called active. The shares of active, inactive and inconclusive entries below differ from those in the screen. Calls come from the whole dose curve; as a rule, active = well fitted cell-killing curve with a large enough effect; inconclusive = small, poorly fitted or top-dose-only effect, or effect the other way; inactive = flat fitted curve, though single readings scatter. A potency beside an inconclusive call is a rough fit, not a confirmed value.
# Test: qHTS assay for MDR1-selective chemotherapeutics: Primary screen using the drug-selected MDR subline cells KB-V1; note: nearly all actives have a fitted effect of over 60% in size
# Settings: KB-V1 MDR cells viability, CellTiter-Glo, 72 h; activity change, negative = cytotoxicity: at 46.1 µM (top of the series)
# Outline: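 Following 72 h at 37 degrees C with compound, KB-V1 cell viability was read by CellTiter-Glo luminescence, medium being phenol-red-free DMEM plus 10% FBS; concentration-response parameters came from normalized, curve-fitted qHTS data.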
# % is set by controls: 0 for no effect and ±100 for the full control effect; potency is the fitted concentration of half-maximal effect.
SMILES,Potency,"activity change, negative = cytotoxicity"
CCOc1ccc(N=Cc2ccc(N(C)C)cc2)c(O)c1,"inconclusive: 18.4 µM [cytotoxic, single point]",
COC(=O)c1ccc2c(c1)N(C)CCS2,"inconclusive: 32.6 µM [rising, single point]",
CC(=O)c1ccc(NC(c2ccc(F)cc2)c2nnc(-c3ccccc3)o2)cc1 (stereo not drawn),"inconclusive: 18.4 µM [rising, partial curve, poor fit]",
CCOCCc1nn2c(=O)cc(COC(=O)CNC(=O)c3ccc(F)cc3)nc2s1,"inconclusive: 16.4 µM [rising, partial curve, poor fit]",
CC(C)c1cc(NC(=O)c2ccccc2)cc(C(C)C)c1O,"inconclusive: 20.6 µM [cytotoxic, partial curve, poor fit]",
CCn1c(Cn2nnc(-c3ccccc3)n2)nnc1SCC(=O)Nc1cccc(C(C)=O)c1,inactive,
Cc1cc(N2CCCCC2)n2nc(C)c(-c3ccccc3)c2n1,"inconclusive: 16.4 µM [cytotoxic, single point]",
OC(c1ccc(F)cc1)c1nc(-c2cc3ccccc3o2)cs1 (stereo not drawn),"inconclusive: 25.9 µM [cytotoxic, single point]",
O=C1ON=C(c2ccccc2)/C1=C/c1ccc(-c2ccccc2[N+](=O)[O-])o1,"inconclusive: 29.1 µM [cytotoxic, single point]",
CC(Oc1ccc(S(=O)(=O)N2CCCC2)cc1[N+](=O)[O-])C(=O)NC(C)c1ccccc1 (stereo not drawn),"inconclusive: 7.31 µM [cytotoxic, partial curve]",
Cc1cc(C(=O)CN2CCN(CC(=O)Nc3ccc(F)cc3)CC2)c(C)n1C1CC1,"inconclusive: 16.4 µM [cytotoxic, partial curve, poor fit]",
O=C(Nc1ccc2nc3ccccc3nc2c1)c1ccccc1,"inconclusive: 14.6 µM [cytotoxic, partial curve]",
CCCCCCCCN1C(=O)[C@H](CC(=O)NCc2ccc(OC)c(OC)c2)C[C@@]2(C(=O)OCC)CCCC=C12,"inconclusive: 29.1 µM [cytotoxic, single point]",
CN1CCN(c2ccccc2NC(=O)Cn2ncc3c([nH]c4ccccc43)c2=O)CC1,inactive,
O=S(=O)(Cc1ccccc1)N1CCN(Cc2c(F)cccc2Cl)CC1,"inconclusive: 20.6 µM [cytotoxic, single point]",
COc1cccc(OC)c1C(=O)N1CC(C)OC(C)C1 (stereo not drawn),inactive,
CCOc1ccc(NC(=O)CN(C)C(=O)c2ccccc2OCCOc2ccccc2)cc1OCC,active: 2.31 µM,
COc1ccc(C(=O)Oc2cc(/C=N/NC(N)=S)ccc2OC)cc1,inactive,
COc1ccc(OCc2nc3ccc(S(=O)(=O)Nc4ccccc4Cl)cc3[nH]2)cc1,"inconclusive: 29.1 µM [cytotoxic, single point]",
O=S(=O)(O)c1cccc2c(N=Nc3ccc(O)c4ncccc34)cccc12,inactive,
CCOC(=O)c1c(C)oc2c1c(C(c1ccncc1)N1CCOCC1)c(O)c1ccccc12 (stereo not drawn),inactive,
CCc1ccc(CN(C)C(=O)C2CCC(=O)N(CCCN3CCCC3=O)C2)cc1 (stereo not drawn),"inconclusive: 6.51 µM [rising, partial curve]",
CC(=O)c1ccc(OCc2cc(C(=O)N(C)C3CCOC3)no2)cc1 (stereo not drawn),,inconclusive: -48.2%

SMILES,Potency,"activity change, negative = cytotoxicity"
O=C(c1ccc2c(c1)CCN2S(=O)(=O)c1ccc(Cl)cc1)N1CCN(c2ccccc2)CC1,inactive,
O=C(CCc1nc2ccccc2c(=O)[nH]1)Nc1cccc(S(=O)(=O)N2CCOCC2)c1,"inconclusive: 29.1 µM [rising, partial curve, poor fit]",
Cc1sc2ncn(CC(=O)NCCCN3CCC(C)CC3)c(=O)c2c1S(=O)(=O)N1CCC(C)CC1,"inconclusive: 16.4 µM [rising, single point]",
COc1ccc(CNC(=O)Nc2ccc3c(c2)c(=O)n(C)n3Cc2cc(C)cc(C)c2)cc1,inactive,
O=C(N/C=N/OCc1cccc(C(F)(F)F)c1)N1OC[C@@H]2COc3ccc4ccccc4c3[C@@H]21,active: 16.4 µM,
COc1ccc(C(OC(=O)c2ccco2)C(=O)NC2CCCC2)cc1 (stereo not drawn),inactive,
CCS(=O)(=O)c1ccc(OC)c(N=Nc2ccc(O)c3ncccc23)c1,"inconclusive: 5.17 µM [cytotoxic, full curve]",
Cc1c(C(=O)Nc2ccc(Cl)cc2)c2ccccn2c1CCc1ccncc1,inactive,
Cc1c(C(=O)OCC2CCCO2)[nH]c2c1C(=O)CC(c1ccco1)C2 (stereo not drawn),active: 4.11 µM,
CCCCNC(=O)CSc1nc2cc3c(cc2c(=O)n1Cc1ccco1)OCO3,"inconclusive: 1.84 µM [cytotoxic, full curve, poor fit]",
c1cc(-c2cc3nc(NC4CCCCC4)ccn3n2)ccc1OCCN1CCOCC1,"inconclusive: 29.1 µM [cytotoxic, single point]",
CCc1nnc(NC(=O)CS(=O)(=O)Cc2ccccc2)s1,"inconclusive: 23.1 µM [rising, single point]",
COC(=O)c1cc(C)sc1NC(=O)CSc1ncccn1,inactive,
Cc1ccc(S(=O)(=O)Nc2nc3ccccc3nc2NCc2ccc3c(c2)OCO3)cc1C,"inconclusive: 18.4 µM [cytotoxic, partial curve]",
COC(=O)C1=C(C)N=c2s/c(=C/c3ccoc3)c(=O)n2C1c1ccccc1 (stereo not drawn),"inconclusive: 16.4 µM [cytotoxic, single point]",
Cc1ccc2c(c1)C(c1ccc(N3CCOCC3)cc1)=NNC(c1cccs1)=N2,"inconclusive: 23.1 µM [cytotoxic, single point]",
CCC(=O)N1CCN(c2ccccc2NC(=O)c2ccc([N+](=O)[O-])o2)CC1,"inconclusive: 29.1 µM [cytotoxic, single point]",
CCN1C(=O)C(CC(=O)Nc2ccc(OC)cc2)N(CCCN2CCN(c3ccc(F)cc3)CC2)C1=S (stereo not drawn),"inconclusive: 20.6 µM [cytotoxic, single point]",
CC(=O)c1ccc(-c2ccc(C(=O)N3CCCc4ccccc43)o2)cc1,"inconclusive: 18.4 µM [cytotoxic, partial curve]",
Nc1nc(Nc2ccccc2F)sc1C(=O)c1ccccc1,inactive,
CC(C)CCCCCCCCCCCCC(=O)NCC(=O)NC1C(C)OC(Nc2ncnc3nc[nH]c23)C(O)C1O (stereo not drawn),"inconclusive: 0.517 µM [cytotoxic, full curve, poor fit]",
Cc1ccc2[nH]c(-c3ccccc3)cc(=O)c2c1,"inconclusive: 1.16 µM [cytotoxic, full curve, poor fit]",
CCn1c(=NC(=O)C2COc3ccccc3O2)sc2c(OC)ccc(OC)c21 (stereo not drawn),active: 9.2 µM,

# Single values from the list:
# For Potency, COC(=O)C1=C(C)N=c2s/c(=C/c3ccoc3)c(=O)n2C1c1ccccc1 (stereo not drawn) has inconclusive: 16.4 µM [cytotoxic, single point]
# For Potency, COc1ccc(C(OC(=O)c2ccco2)C(=O)NC2CCCC2)cc1 (stereo not drawn) has inactive
# For Potency, Cc1c(C(=O)Nc2ccc(Cl)cc2)c2ccccn2c1CCc1ccncc1 has inactive
# For Potency, O=C(N/C=N/OCc1cccc(C(F)(F)F)c1)N1OC[C@@H]2COc3ccc4ccccc4c3[C@@H]21 has active: 16.4 µM

# (continued)

SMILES,Potency,"activity change, negative = cytotoxicity"
COc1ccc(CNc2oc(/C=C/c3cccc(OC)c3)nc2C#N)cc1,inactive,
Cc1ccc(C)c(S(=O)(=O)N2CCN(C(=O)c3ccc(OCc4c(C)noc4C)cc3)CC2)c1,"inconclusive: 4.61 µM [cytotoxic, partial curve]",
CC(=O)Nc1ccc(NC(=O)C2CC(=O)N(Cc3ccccc3)C2)cc1 (stereo not drawn),inactive,
CCOc1ccccc1C(=O)OCC(=O)NCCNC(=O)COC(=O)c1ccccc1OCC,inactive,
O=C1ON=C(c2cccc([N+](=O)[O-])c2)/C1=C/c1ccc(O)cc1,"inconclusive: 29.1 µM [cytotoxic, single point]",
CNC(=O)COC(=O)c1cccc(S(=O)(=O)N2CCN(c3ccc(F)cc3)CC2)c1,"inconclusive: 14.6 µM [rising, partial curve]",
COc1cccc2[nH]c3c(=O)[nH]cnc3c12,"inconclusive: 29.1 µM [cytotoxic, single point]",
CCOCCCNC(=O)Cn1cnc2sc(C)c(S(=O)(=O)N3CCN(c4ncccn4)CC3)c2c1=O,inactive,
Cc1cc(C)n(CC(=O)N2CCCC(N3CCN(c4cccc(C(F)(F)F)c4)CC3)C2)n1 (stereo not drawn),"inconclusive: 9.2 µM [cytotoxic, partial curve]",
COC(=O)c1c(C)oc2ccc(N(C(=O)c3ccncc3)S(=O)(=O)c3ccc4ccccc4c3)cc12,"inconclusive: 23.1 µM [cytotoxic, single point]",
NNC(=O)/C(=C\c1ccco1)NC(=O)c1ccco1,inactive,
Cc1ccc(CCNC(=O)C2CCCN(c3ncnc4c3nc3n4CCCCC3)C2)cc1 (stereo not drawn),"inconclusive: 1.64 µM [cytotoxic, full curve, poor fit]",
Cc1ccc(C(O)c2ncc(-c3ccc4ccccc4c3)[nH]2)c(C)c1 (stereo not drawn),inactive,
COc1nc(-c2ccccc2)c2cc(Br)ccc2n1,"inconclusive: 14.6 µM [cytotoxic, partial curve, poor fit]",
Cc1ccc(NC(=O)COC(=O)[C@H](C)NC(N)=O)c(C)c1,inactive,
c1ccc(-c2cc3c(-n4cccc4)ncnc3o2)cc1,,inconclusive: -89.6%
Cc1ccc(CNC(=O)c2cc(-c3ccc(C)cc3)nc3n[nH]c(-c4ccc(F)cc4)c23)cc1,"inconclusive: 18.4 µM [rising, single point]",
COC(=O)C1=C(O)CSC1=Nc1ccc(C)cc1,"inconclusive: 20.6 µM [cytotoxic, single point]",
O=C(C1=C[C@@H](C2CCCCC2)C[C@@H](OCc2ccc(CO)cc2)O1)N1CCN(Cc2ccccc2)CC1,"inconclusive: 20.6 µM [cytotoxic, single point]",
COc1ccc(CCNC(=O)COc2ccc(S(=O)(=O)NC(C)C)cc2Cl)cc1OC,inactive,
C[C@H](CO)N1C[C@H](C)[C@@H](CN(C)S(=O)(=O)c2cn(C)cn2)Oc2ccc(NC(=O)NC3CCCCC3)cc2C1=O,inactive,
Cc1noc(C)c1COc1ccccc1C(=O)N1CCN(c2cccc(C(F)(F)F)c2)CC1,"inconclusive: 2.91 µM [cytotoxic, partial curve, poor fit]",
